Results are given in words; binding and its absence hold for the method and conditions named. A result given as binding can be weak or reduced; the word gives no strength.
Experiments:
[1] = biological target: glycosomal malate dehydrogenase (MDH, residues 1–323) (Trypanosoma cruzi) (UniProt Q4DRD8); test: cryo-EM structure; MDH-Pex5 binary complex reconstituted as the ternary complex but without Pex14NTD; both purified
[2] = biological target: glycosomal malate dehydrogenase (MDH, residues 1–323) (Trypanosoma cruzi) (UniProt Q4DRD8); test: cryo-EM structure; ternary complex: purified MDH (tetramer), full-length Pex5 and Pex14NTD mixed at 1:4:12, overnight at 4 °C, separated on Superose6 10/300, vitrified at ~0.75 mg/mL; no cross-linking; MDH alone solved from the same dataset; both purified

B1: full length Pex5 (residues 1–666) (receptor, Trypanosoma cruzi, UniProt Q4DPQ9 1-668, looked up)
chain: MDCSTGAAIGQQFAKDAFHMHGGVGVGPTGNPEHDVLMNEMMMVQTPTGPAGEWTHQFAAYQGKQQQQHPQELAMRHQQNDALMLRQQQEMEEAFCTLCAAHPHSHAHSHAHSHQPQGLVGPAMMGPQIMPPMMFGPGSGGFMMGTPPMMPYASMKFAGDAAMAAANNTTMTQGATATSTTSVQQEQQQQQSSDNGWVEKLRDAEWAQDYSDAQVFTLEGQSEQTMEEHAKNSEFYQFMDKIRSKELLIDEETGQLVQGPGPDPDAPEDAEYLKEWAAAEGLNMPPGFFEHMMQRPQGNNEQAEGRLFDGSNDALMDDGALDNAADVEEWAREYAEAQEQLQRVQNETNYPFEPNNPYMYHDKPMEEGIAMLQLANMAEAALAFEAVCQKEPENVEAWRRLGTTQAENEKDCLAIIALNHARMLDPKDIAVHAALAVSHTNEHNVGAALQSLRSWLLSQPQYEHLGLVDLQEVAADEGLDEVPEENYFFAAPSEYRDCCTLLYAAVEMNPNDPQLHASLGVLHNLSHRFDEAAKNFRRAVELRPDDAHTWNKLGATLANGNRPQEALEAYNRALDINPGYVRVMYNMAVSYSNMAQYPLAAKHITRAIALQAGGTNPQGEGSRIATRGLWDLLRMTLNLMDRSDLVEASWQQDLTPFLKEFGLEDMAV
notes: Pex5, Trypanosoma cruzi, full length, residues 1-666, GenBank PBJ69826.1; Contains three Wxxx(F/Y) motifs; source: E. coli BL21 (DE3), purified (Ni-NTA, SEC)
binding [1]: binds | binding [2]: binds

Reference: article PMC12738837, “Structure of Trypanosoma peroxisomal import complex unveils conformational heterogeneity” (Nature Communications, 2025)
